From patent US7074831B2, “Compounds, methods for their preparation and use thereof” (Active Biotech AB, priority 2004, dated 2006)
Some entries share one result that the patent states for a list of compounds.

Tested on: cardiac graft rejection, PVG donor to DA recipient rats
Assay: Inhibition of transplant rejection in the rat (heterotopic cardiac transplantation)
Format: in vivo
Conditions: rat heart transplantation, oral daily treatment for 10 days

| SMILES | median graft survival |
| --- | --- |
| O=C(O)c1cc(OCc2ccccc2C(F)(F)F)ccc1NC(=O)C1CC1 [2-(Cyclopropanecarbonyl-amino)-5-(2-trifluoromethyl-benzyloxy)-benzoic Acid] | more than 100 days |
| CCC(=O)Nc1ccc(Oc2cc(C(F)(F)F)cc(C(F)(F)F)c2)cc1C(=O)O [Compound S, 5-(3,5-bis-trifluoromethyl-phenoxy)-2-propionylamino-benzoic acid] | more than 100 days |
